The source of these data is the supplement of paper PMC8256030.

Values joined by “and” are separate entries in the source; they are usually repeats but may differ in a detail not shown here. Equal values may be shown once. Some of the results follow. This data set is noisy: repeats of one test often differ as much as different tests do.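 HEK293T cells were given each compound shortly before transfection with a reporter in which red mCherry is followed by the SARS-CoV-2 frameshift element and then GFP in the −1 frame, so GFP appears only after frameshifting.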

This experiment concerns HEK293T. The experiment can be described thus: percent viability (nuclei count) relative to control; higher = more viable cells. The following applies: 10 µM; 24 h.
Take `CCCCOc1ccc(OCCCN2CCOCC2)cc1` [pramocaine]: the percent viability was determined as 142%. The value for `Cc1ccc(O)c([C@H](CCN(C(C)C)C(C)C)c2ccccc2)c1` [tolterodine] was 235%; that for `N=C(N)c1ccc(CNC(=O)[C@@H]2CCN2C(=O)[C@H](NCC(=O)O)C2CCCCC2)cc1` [melagatran] was 246%. Take `O=C(Nc1ccc(C(=O)O)c(O)c1)c1ccccc1` [calcium benzamidosalicylate]: the percent viability was 90.2%. Take `COC(=O)[C@H]1[C@H]2C[C@@H]3c4[nH]c5ccccc5c4CCN3C[C@H]2C[C@@H](OC(=O)c2cc(OC)c(OC)c(OC)c2)[C@@H]1OC` [deserpidine]: the percent viability turned out to be 101%.

As for `Cc1oncc1C(=O)Nc1ccc(C(F)(F)F)cc1` [leflunomide], the percent viability is 254% and 179%. As to `N=C(N)N/N=C/c1c(Cl)cccc1Cl` [guanabenz], the percent viability is 159%. With `C=C[C@H]1CN2CC[C@H]1C[C@H]2[C@H](O)c1ccnc2ccc(OC)cc12` [Qualaquin], the percent viability worked out at 89.2%. Regarding `C#C[C@]1(O)CC[C@H]2[C@@H]3CCC4=CC(=O)CC[C@@H]4[C@H]3CC[C@@]21C` [norethisterone], the percent viability was 341% and 262%. In the case of `O=C(O)CCC/C=C\C[C@@H]1[C@@H](/C=C/[C@@H](O)COc2cccc(C(F)(F)F)c2)[C@H](O)C[C@@H]1O` (racemic) [fluprostenol], the percent viability amounted to 180%. Regarding `COC(=O)Nc1nc2cc(C(=O)c3ccccc3)ccc2[nH]1` [mebendazole], the percent viability was determined as 14.8%.

Take `COc1cc2ncnc(Nc3ccc(F)c(Cl)c3)c2cc1OCCCN1CCOCC1` [gefitinib]: the percent viability was 221% and 292%.

As to `O=C1CCC2CCC(=O)N12` [rolziracetam], the percent viability was 162%. `O=C(OC1C[C@@H]2CC3C[C@H](C1)N2CC3=O)c1c[nH]c2ccccc12` (stereo not given in full) [Dolasteron]: the percent viability is 77.6%. Regarding `Nc1ccn([C@@H]2CS[C@H](CO)O2)c(=O)n1` [lamivudine], the percent viability amounted to 141%.

Take `CN(C)C(=O)CCS[C@H](SCCC(=O)O)c1cccc(/C=C/c2ccc3ccc(Cl)cc3n2)c1` [verlukast]: the percent viability was determined as 113%. With `CN1CCCN=C1COC(=O)C(O)(c1ccccc1)C1CCCCC1` (stereo not given), the percent viability stood at 347%. For `O=C1C(O)=C(O)C(=O)C(O)=C1O` [tetroquinone], the percent viability was 396%. `C=CCc1cc(OC)c(O)c(C(=O)NCCO)c1` [alibendol]: the percent viability is 89%. As to `N[C@@H](CSCCCO)C(=O)O` [fudosteine], the percent viability was determined as 233%. Turning to `CCN1CCC[C@H]1CNC(=O)c1cc(S(N)(=O)=O)ccc1OC` [levosulpiride], the percent viability was 208%.

With `COC(=O)N/N=C/c1c[n+]([O-])c2ccccc2[n+]1[O-]`, the percent viability stood at 151%. As to `O=C(Nc1ccccc1)OCC(CN1CCCCC1)OC(=O)Nc1ccccc1` (stereo not given), the percent viability was determined as 175%. `N[C@H](Cc1cnc[nH]1)C(=O)O`: the percent viability turned out to be 149%. Turning to `CN1CCCC(CC2c3ccccc3Sc3ccccc32)C1` (stereo not given) [metixene], the percent viability came out at 336%. For `CC(=O)[C@@]1(O)CC[C@H]2[C@@H]3C=C(Cl)C4=CC(=O)CC[C@]4(C)[C@H]3CC[C@@]21C` [chlormadinone], the percent viability is 234%. With `CCCSc1nc(N[C@@H]2C[C@H]2c2ccc(F)c(F)c2)c2nnn([C@@H]3C[C@H](OCCO)[C@@H](O)[C@H]3O)c2n1` [Brilinta], the percent viability is 189%. For `CCOC(=O)C1=C[C@@H](OC(CC)CC)[C@H](NC(C)=O)[C@@H](N)C1`, the percent viability is 202%. For `O=C1Nc2ccc(Cl)cc2[C@@](C#CC2CC2)(C(F)(F)F)O1` [efavirenz], the percent viability is 186%. The value for `OCc1cccnc1` was 237%; that for `COc1c(N2CCNC(C)C2)c(F)cc2c(=O)c(C(=O)O)cn(C3CC3)c12` (stereo not given) [gatifloxacin] was 352% and 157%. Take `CC(=O)[C@@]1(O)CC[C@H]2[C@@H]3C=C(Cl)C4=CC(=O)[C@@H]5C[C@@H]5[C@]4(C)[C@H]3CC[C@@]21C` [cyproterone]: the percent viability was 153%. As to `CCOC(=O)[C@@H](N)Cc1ccc(O)c(O)c1` [etilevodopa], the percent viability was 252%. For `C[C@]12CC[C@H]3C(=CCc4cc(O)ccc43)[C@@H]1CCC2=O`, the percent viability worked out at 99.4%. The value for `Clc1ccc(CSC(Cn2ccnc2)c2ccc(Cl)cc2Cl)cc1` (stereo not given) [sulconazole] was 123%; that for `O=C(O)C1=C(CSc2nnnn2CS(=O)(=O)O)CS[C@@H]2[C@H](NC(=O)[C@H](O)c3ccccc3)C(=O)N12` was 266%.

With `Clc1ccc(CO/N=C(\Cn2ccnc2)c2ccc(Cl)cc2Cl)c(Cl)c1`, the percent viability was found to be 272%.

Take `Cc1cn([C@H]2O[C@@H](CO)[C@H](O)[C@H]2F)c(=O)[nH]c1=O` [clevudine]: the percent viability is 432%. As to `COc1cc2nc(N3CCN(C(=O)C4CCCO4)CC3)nc(N)c2cc1OC` (stereo not given) [Terazosin], the percent viability came to 246%.

For the compound `Cc1c(O)c(=O)ccn1C` [deferiprone], the percent viability was found to be 252%.
